Measurements reported in PubChem BioAssay AID504744 (Drosophila RNAi Screening Center, 2011).
The deposit covers about 23,000 reagents; shown is a random part of those that have a named target and a result. Of all reagents, 98 (0.43%) are marked active. 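Only hit calls are given; the phospho-dAkt signals, z-scores and hit direction were not deposited.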 Names joined by + are all predicted targets of the reagent. Reagent sequences are not shown.

Purpose: 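Find genes whose loss alters insulin-driven dAkt phosphorylation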 (primary screen)
System: Drosophila Kc167 cells
Knock-down reagent: long dsRNA against Drosophila genes, 250 ng dsRNA per well of a 384-well plate
Duration: 3 days of knock-down, then overnight serum-free starvation before stimulation
Conditions: bovine insulin at 387 nM for 10 minutes after 12 h without serum
Measurement: 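Per-well phospho-dAkt level from an in-cell fluorescent antibody stain, divided by a DNA-dye signal; log2 residuals turned into z-scores that take cell number into account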
Call rule: 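Hit in the insulin screen when the two-replicate mean z-score is more extreme than plus or minus 2.5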

no.	target gene	amplicon	activity call
1	Mical	DRSC14349	inactive
2	Mical	DRSC14351	inactive
3	Mical	DRSC15365	inactive
4	Mical	DRSC15366	inactive
5	CG10713	DRSC09786	inactive
6	DNAlig1	DRSC04518	inactive
7	CG42586 + CG31775	DRSC01413	inactive
8	CG11279	DRSC09837	inactive
9	Lrp4	DRSC20118	inactive
10	CG13933	DRSC08402	inactive
11	kek1	DRSC03551	inactive
12	noi	DRSC12383	inactive
13	Nepl14	DRSC15631	inactive
14	G6P	DRSC00414	inactive
15	Acat2	DRSC08630	inactive
16	BTBD9	DRSC18148	inactive
17	BTBD9	DRSC22371	inactive
18	aft	DRSC07576	inactive
19	CG15082	DRSC06513	inactive
20	Mfap1	DRSC08154	inactive
21	CG11634	DRSC03700	inactive
22	lncRNA:iab4	DRSC22331	inactive
23	r-cup	DRSC20475	inactive
24	CG3744	DRSC15511	inactive
25	betaTub85D	DRSC16910	inactive
26	CG31210 (retired record) + CG4836	DRSC22066	inactive
27	RpS25	DRSC16837	inactive
28	Hexo1	DRSC08663	inactive
29	CG32708	DRSC18411	inactive
30	Eph	DRSC17164	inactive
31	GLS	DRSC07261	inactive
32	CG13078	DRSC02182	inactive
33	Lsd-2	DRSC20143	inactive
34	CG30383	DRSC05062	inactive
35	CG42750	DRSC02458	inactive
36	CG42750	DRSC03019	inactive
37	CG42750	DRSC03024	inactive
38	CG42750	DRSC21414	inactive
39	deltaCOP	DRSC18760	inactive
40	Sf3a2	DRSC09801	inactive
41	GAPsec	DRSC10564	inactive
42	CG15535	DRSC15071	inactive
43	CG17738	DRSC15257	inactive
44	nAChRalpha1	DRSC13664	inactive
45	nAChRalpha1	DRSC13670	inactive
46	nAChRalpha1	DRSC13672	inactive
47	nAChRalpha1	DRSC17008	inactive
48	hwt	DRSC19386	inactive
49	drosha	DRSC07607	inactive
50	CG34238	DRSC09040	inactive
51	CG30457	DRSC06661	inactive
52	CG15126	DRSC06548	inactive
53	thoc7	DRSC08512	inactive
54	poe	DRSC03593	inactive
55	tap	DRSC11402	inactive
56	CG13310	DRSC09981	inactive
57	CG9717	DRSC16543	inactive
58	Caf1-180	DRSC17807	inactive
59	Atx2	DRSC15727	inactive
60	PVRAP	DRSC09966	inactive
61	PVRAP	DRSC10577	inactive
62	Pkc53E	DRSC05636	inactive
63	Pkc53E	DRSC07510	inactive
64	CG12491 + CG34105	DRSC04008	inactive
65	CG12491 + CG34105	DRSC04124	inactive
66	alphaTub85E	DRSC16899	inactive
67	park	DRSC11618	inactive
68	Edem1	DRSC18573	inactive
69	Ciao1	DRSC06170	inactive
70	Ada	DRSC14463	inactive
71	Tektin-A	DRSC01921	inactive
72	CG3257	DRSC04351	inactive
73	ClC-a	DRSC14947	inactive
74	ClC-a	DRSC14948	inactive
75	ClC-a	DRSC16142	inactive
76	mRpS7	DRSC02814	inactive

In a second layout: results already given
{"target gene":"deltaCOP","amplicon":"DRSC18760","activity call":"inactive"}
{"target gene":"Sf3a2","amplicon":"DRSC09801","activity call":"inactive"}
{"target gene":"GAPsec","amplicon":"DRSC10564","activity call":"inactive"}
{"target gene":"CG15535","amplicon":"DRSC15071","activity call":"inactive"}
{"target gene":"CG17738","amplicon":"DRSC15257","activity call":"inactive"}
{"target gene":"nAChRalpha1","amplicon":"DRSC13664","activity call":"inactive"}
{"target gene":"nAChRalpha1","amplicon":"DRSC13670","activity call":"inactive"}
{"target gene":"nAChRalpha1","amplicon":"DRSC13672","activity call":"inactive"}
{"target gene":"nAChRalpha1","amplicon":"DRSC17008","activity call":"inactive"}
{"target gene":"hwt","amplicon":"DRSC19386","activity call":"inactive"}
{"target gene":"drosha","amplicon":"DRSC07607","activity call":"inactive"}
{"target gene":"CG34238","amplicon":"DRSC09040","activity call":"inactive"}
{"target gene":"CG30457","amplicon":"DRSC06661","activity call":"inactive"}
{"target gene":"CG15126","amplicon":"DRSC06548","activity call":"inactive"}
{"target gene":"thoc7","amplicon":"DRSC08512","activity call":"inactive"}
{"target gene":"poe","amplicon":"DRSC03593","activity call":"inactive"}
{"target gene":"tap","amplicon":"DRSC11402","activity call":"inactive"}
{"target gene":"CG13310","amplicon":"DRSC09981","activity call":"inactive"}
{"target gene":"CG9717","amplicon":"DRSC16543","activity call":"inactive"}
{"target gene":"Caf1-180","amplicon":"DRSC17807","activity call":"inactive"}
{"target gene":"Atx2","amplicon":"DRSC15727","activity call":"inactive"}
{"target gene":"PVRAP","amplicon":"DRSC09966","activity call":"inactive"}
{"target gene":"PVRAP","amplicon":"DRSC10577","activity call":"inactive"}

Additional results follow.
no.	target gene	amplicon	activity call
77	CG34447	DRSC00741	inactive
78	dgt5	DRSC07280	inactive
79	Sam-S	DRSC00758	inactive
80	CG2680	DRSC18466	inactive
81	Topors	DRSC06531	inactive
82	Pngl	DRSC04914	inactive
83	CG9896	DRSC03962	inactive
84	CG9896	DRSC04594	inactive
85	Fit1	DRSC08450	inactive
86	CG3253	DRSC04350	inactive
87	RpLP2	DRSC07539	inactive
88	CG33296	DRSC00998	inactive
89	Svip	DRSC08982	inactive
90	CG9130 + CG9133	DRSC08624	inactive
91	CG9130 + CG9133	DRSC08625	inactive
92	CG9130 + CG9133	DRSC22010	inactive
93	CG14857	DRSC14981	inactive
94	CG14135	DRSC10140	inactive
95	emei	DRSC10897	inactive
96	emei	DRSC22684	inactive
97	Claspin	DRSC08308	inactive
98	eEF1delta	DRSC02790	inactive
99	Rab11	DRSC16809	inactive
100	CG2182	DRSC12308	inactive
101	dare + CG30033	DRSC22908	inactive
102	spn-F	DRSC14475	inactive
103	smid	DRSC11398	inactive
104	cnc	DRSC14676	inactive
105	cnc	DRSC15289	inactive
106	cnc	DRSC15600	inactive
107	cnc	DRSC15601	inactive
108	nord	DRSC04210	inactive
109	nord	DRSC04361	inactive
110	Gr97a	DRSC13802	inactive
111	PPO3	DRSC04325	inactive
112	Epac	DRSC04969	inactive
113	Epac	DRSC04996	inactive
114	Epac	DRSC04997	inactive
115	CG13919	DRSC08388	inactive
116	CG5033	DRSC07410	inactive
117	CG3565	DRSC04389	inactive
118	CG11085	DRSC19374	inactive
119	CG11085	DRSC22832	inactive
120	CG32373	DRSC08895	inactive
121	Gug	DRSC11179	inactive
122	CG33262	DRSC22893	inactive
123	CG13337	DRSC06371	inactive
124	CG9663	DRSC00724	inactive
125	CG31459	DRSC13380	inactive
126	CG12857	DRSC06197	inactive
127	mtm	DRSC03576	inactive
128	CG14246	DRSC14741	inactive
129	CG8389	DRSC07158	inactive
130	CG8389	DRSC22855	inactive
131	CG30413	DRSC04001	inactive
132	CG42812 + CG42811	DRSC15367	inactive
133	CG42812 + CG42811	DRSC15368	inactive
134	Gtpx	DRSC08221	inactive
135	Gtpx	DRSC22117	inactive
136	Nadk2	DRSC07072	inactive
137	Acp95EF	DRSC14102	inactive
138	CG13423	DRSC06386	inactive
139	rdgBbeta	DRSC07672	inactive
140	Cyp18a1	DRSC20235	inactive
141	CG9300	DRSC11064	inactive
142	btsz	DRSC14982	inactive
143	btsz	DRSC16231	inactive
144	trn	DRSC11407	inactive
145	subdued	DRSC15137	inactive
146	Obp99b	DRSC16264	inactive
147	obst-B	DRSC01987	inactive
148	CG6763	DRSC16110	inactive
149	CG14710	DRSC14933	inactive
150	Rab1	DRSC16808	inactive
151	CG33325	DRSC12699	inactive
152	Dhod	DRSC16647	inactive
153	SmB	DRSC03437	inactive
154	Vha100-5	DRSC02175	inactive
155	Dred	DRSC11057	inactive
156	Dred	DRSC11059	inactive
157	Ldaf1	DRSC17963	inactive
